# In the supplement of paper PMC7666118:
# Protein sequences, listed by entry. Tags and fused reporters are not part of them. Lines headed by an entry give the natural chain unless they say otherwise; changes in a name come on top.
# UniProt Q13588: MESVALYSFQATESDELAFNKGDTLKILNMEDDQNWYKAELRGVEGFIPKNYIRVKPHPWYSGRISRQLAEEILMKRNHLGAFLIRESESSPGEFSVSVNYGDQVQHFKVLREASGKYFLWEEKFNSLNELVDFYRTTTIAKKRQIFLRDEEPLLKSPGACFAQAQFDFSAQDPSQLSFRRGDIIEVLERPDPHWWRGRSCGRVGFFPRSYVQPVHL
# UniProt O14964, whole entry: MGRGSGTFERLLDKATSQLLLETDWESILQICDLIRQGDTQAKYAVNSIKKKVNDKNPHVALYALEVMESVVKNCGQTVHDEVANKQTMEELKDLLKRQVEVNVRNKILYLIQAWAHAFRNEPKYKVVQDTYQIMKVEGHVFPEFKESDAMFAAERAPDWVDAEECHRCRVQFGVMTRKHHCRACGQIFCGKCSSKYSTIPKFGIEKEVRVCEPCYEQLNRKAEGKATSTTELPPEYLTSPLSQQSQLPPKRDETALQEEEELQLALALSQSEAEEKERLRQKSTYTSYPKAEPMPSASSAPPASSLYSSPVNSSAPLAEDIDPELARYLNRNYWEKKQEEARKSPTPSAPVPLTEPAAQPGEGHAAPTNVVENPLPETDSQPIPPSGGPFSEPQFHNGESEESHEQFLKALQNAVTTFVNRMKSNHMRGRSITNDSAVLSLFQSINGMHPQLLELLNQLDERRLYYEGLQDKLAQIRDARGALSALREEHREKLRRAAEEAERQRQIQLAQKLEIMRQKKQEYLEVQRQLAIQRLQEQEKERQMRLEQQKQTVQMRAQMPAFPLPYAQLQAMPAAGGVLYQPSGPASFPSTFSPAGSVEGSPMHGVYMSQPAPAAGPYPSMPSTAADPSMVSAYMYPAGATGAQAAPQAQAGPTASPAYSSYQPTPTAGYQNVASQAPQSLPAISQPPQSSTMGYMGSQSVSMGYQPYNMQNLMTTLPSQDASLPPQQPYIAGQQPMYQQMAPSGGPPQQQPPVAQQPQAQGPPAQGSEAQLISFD
# UniProt Q9UKD1: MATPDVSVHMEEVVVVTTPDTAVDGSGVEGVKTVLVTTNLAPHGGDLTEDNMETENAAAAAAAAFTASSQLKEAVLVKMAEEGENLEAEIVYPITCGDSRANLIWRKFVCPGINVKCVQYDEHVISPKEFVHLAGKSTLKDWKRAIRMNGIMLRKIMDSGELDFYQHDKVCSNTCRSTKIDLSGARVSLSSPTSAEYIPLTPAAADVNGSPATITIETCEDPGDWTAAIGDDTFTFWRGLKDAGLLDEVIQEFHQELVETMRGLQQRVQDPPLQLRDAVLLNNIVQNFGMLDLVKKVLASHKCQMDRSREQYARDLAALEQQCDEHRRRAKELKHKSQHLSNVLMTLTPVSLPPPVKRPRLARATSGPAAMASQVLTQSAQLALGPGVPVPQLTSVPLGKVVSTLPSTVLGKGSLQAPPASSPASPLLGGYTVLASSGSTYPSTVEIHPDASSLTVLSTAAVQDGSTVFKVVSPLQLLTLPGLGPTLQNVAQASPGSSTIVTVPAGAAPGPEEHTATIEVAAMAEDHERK
# UniProt P49915: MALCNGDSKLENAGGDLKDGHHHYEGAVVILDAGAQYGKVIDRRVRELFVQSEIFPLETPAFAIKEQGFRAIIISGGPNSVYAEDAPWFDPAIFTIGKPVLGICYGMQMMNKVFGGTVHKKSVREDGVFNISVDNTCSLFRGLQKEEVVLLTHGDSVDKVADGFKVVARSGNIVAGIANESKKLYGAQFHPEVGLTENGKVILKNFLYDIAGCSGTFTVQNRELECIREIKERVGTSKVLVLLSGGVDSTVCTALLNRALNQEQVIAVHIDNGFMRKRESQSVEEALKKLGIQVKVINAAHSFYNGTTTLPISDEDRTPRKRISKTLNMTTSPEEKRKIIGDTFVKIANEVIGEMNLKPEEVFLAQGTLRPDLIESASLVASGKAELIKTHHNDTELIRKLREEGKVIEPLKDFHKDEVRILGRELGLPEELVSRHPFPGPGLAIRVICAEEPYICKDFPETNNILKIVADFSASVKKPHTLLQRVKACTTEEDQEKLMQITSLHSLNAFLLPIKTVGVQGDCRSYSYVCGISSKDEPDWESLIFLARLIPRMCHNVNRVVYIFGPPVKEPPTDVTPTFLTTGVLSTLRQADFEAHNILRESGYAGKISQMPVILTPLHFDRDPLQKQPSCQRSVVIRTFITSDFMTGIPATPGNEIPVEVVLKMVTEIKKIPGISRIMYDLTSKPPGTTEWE
# UniProt Q7Z4V5: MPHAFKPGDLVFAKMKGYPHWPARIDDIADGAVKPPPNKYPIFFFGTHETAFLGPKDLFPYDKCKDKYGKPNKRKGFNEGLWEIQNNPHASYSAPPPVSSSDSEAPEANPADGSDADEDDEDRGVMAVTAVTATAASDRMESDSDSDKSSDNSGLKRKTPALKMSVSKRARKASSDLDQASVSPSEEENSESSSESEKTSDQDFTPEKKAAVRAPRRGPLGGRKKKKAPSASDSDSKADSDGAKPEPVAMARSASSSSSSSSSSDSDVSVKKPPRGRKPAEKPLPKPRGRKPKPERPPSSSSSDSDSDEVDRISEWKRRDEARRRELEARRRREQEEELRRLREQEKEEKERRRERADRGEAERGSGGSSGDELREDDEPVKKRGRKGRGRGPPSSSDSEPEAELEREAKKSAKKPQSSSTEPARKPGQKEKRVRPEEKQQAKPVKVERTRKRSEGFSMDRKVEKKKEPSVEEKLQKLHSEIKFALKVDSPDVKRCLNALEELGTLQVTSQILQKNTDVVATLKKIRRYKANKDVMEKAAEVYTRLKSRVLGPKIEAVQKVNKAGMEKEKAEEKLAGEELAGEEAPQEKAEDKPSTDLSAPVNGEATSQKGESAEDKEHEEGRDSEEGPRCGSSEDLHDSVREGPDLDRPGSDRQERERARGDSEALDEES
# UniProt Q9BX68: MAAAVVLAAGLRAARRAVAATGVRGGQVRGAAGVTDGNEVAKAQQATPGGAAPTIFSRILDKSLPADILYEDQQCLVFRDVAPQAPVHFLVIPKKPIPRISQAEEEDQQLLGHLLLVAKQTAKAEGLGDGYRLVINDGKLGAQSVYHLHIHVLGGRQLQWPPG
# UniProt O14976: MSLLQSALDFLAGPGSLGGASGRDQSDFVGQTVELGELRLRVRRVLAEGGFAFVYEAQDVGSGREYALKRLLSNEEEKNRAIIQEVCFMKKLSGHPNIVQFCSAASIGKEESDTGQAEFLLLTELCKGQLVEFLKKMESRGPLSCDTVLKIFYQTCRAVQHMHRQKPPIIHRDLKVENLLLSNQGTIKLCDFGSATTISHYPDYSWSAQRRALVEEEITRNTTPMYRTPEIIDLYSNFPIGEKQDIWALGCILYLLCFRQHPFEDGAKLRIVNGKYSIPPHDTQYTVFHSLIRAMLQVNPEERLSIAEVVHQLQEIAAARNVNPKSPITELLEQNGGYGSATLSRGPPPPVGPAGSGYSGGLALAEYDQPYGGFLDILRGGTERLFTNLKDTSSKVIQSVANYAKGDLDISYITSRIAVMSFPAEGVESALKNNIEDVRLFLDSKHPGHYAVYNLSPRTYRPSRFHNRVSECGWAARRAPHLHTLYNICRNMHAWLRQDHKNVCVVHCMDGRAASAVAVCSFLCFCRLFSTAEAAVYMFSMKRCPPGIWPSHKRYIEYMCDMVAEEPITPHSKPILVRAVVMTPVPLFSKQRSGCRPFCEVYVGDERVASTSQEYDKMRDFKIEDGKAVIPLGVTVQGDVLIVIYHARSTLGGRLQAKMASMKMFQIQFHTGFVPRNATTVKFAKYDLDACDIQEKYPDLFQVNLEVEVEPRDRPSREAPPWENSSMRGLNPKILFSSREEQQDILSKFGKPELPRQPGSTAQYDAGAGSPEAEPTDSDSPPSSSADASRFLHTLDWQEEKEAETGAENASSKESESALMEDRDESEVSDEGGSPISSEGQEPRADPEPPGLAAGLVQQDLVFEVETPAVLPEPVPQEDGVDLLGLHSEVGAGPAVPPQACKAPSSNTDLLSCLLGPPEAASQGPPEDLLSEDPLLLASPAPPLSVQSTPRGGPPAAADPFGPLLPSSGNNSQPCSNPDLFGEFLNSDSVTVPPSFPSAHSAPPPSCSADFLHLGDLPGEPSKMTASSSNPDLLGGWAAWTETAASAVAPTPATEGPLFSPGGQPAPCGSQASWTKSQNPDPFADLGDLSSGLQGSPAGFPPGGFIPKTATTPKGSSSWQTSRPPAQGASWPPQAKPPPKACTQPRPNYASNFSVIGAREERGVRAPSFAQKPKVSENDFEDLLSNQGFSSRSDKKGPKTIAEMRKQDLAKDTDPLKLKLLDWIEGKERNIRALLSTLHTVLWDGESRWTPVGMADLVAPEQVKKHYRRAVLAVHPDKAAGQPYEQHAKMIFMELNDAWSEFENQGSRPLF
# UniProt Q86WP2: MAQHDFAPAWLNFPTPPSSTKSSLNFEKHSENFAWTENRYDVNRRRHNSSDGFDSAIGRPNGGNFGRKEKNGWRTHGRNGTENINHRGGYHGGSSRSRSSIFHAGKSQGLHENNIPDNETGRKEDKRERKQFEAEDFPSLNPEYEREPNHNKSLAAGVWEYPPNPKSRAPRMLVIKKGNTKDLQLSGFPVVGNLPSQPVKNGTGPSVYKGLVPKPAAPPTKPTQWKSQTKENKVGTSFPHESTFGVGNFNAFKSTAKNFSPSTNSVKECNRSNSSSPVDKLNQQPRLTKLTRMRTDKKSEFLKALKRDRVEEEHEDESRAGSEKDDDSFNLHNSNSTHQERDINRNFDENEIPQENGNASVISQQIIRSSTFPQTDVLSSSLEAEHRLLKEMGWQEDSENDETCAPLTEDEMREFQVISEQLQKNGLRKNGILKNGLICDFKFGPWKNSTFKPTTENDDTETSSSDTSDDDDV
# UniProt Q9BRX5: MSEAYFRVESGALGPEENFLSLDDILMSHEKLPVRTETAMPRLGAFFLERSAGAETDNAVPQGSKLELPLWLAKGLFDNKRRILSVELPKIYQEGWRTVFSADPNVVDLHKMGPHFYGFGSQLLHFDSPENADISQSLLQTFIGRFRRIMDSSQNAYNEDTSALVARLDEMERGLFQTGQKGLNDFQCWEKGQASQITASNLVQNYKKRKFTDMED
# UniProt O15347: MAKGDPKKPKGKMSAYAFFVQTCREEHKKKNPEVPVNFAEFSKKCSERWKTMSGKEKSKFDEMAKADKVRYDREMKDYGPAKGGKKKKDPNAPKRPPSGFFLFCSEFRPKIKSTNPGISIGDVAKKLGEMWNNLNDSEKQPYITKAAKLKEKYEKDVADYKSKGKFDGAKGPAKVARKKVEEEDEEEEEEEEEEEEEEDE
# UniProt Q86SX6: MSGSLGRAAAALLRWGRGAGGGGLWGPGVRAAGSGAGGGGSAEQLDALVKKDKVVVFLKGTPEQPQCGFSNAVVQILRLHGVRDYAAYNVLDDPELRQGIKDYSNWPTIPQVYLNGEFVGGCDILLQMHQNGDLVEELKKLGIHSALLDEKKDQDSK
# UniProt Q9Y2X7: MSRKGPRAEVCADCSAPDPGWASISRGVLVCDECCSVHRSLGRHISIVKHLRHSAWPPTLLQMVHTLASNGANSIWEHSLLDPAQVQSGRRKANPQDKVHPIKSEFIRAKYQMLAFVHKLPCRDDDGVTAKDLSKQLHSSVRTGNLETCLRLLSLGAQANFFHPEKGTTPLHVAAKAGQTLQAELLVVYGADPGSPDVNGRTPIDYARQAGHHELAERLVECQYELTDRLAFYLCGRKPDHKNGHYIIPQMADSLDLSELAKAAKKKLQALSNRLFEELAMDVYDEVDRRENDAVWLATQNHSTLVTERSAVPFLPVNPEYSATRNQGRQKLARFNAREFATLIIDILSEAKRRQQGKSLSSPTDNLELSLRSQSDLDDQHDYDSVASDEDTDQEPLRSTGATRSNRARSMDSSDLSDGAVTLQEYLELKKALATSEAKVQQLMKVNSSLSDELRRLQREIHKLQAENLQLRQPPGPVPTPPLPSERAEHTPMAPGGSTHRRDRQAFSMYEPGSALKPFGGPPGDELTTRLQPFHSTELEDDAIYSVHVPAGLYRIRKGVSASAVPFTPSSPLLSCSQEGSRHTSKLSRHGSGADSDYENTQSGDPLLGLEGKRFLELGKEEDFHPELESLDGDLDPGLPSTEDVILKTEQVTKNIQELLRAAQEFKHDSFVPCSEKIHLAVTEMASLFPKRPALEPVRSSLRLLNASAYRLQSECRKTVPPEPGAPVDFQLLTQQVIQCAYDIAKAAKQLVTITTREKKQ
# UniProt Q92820: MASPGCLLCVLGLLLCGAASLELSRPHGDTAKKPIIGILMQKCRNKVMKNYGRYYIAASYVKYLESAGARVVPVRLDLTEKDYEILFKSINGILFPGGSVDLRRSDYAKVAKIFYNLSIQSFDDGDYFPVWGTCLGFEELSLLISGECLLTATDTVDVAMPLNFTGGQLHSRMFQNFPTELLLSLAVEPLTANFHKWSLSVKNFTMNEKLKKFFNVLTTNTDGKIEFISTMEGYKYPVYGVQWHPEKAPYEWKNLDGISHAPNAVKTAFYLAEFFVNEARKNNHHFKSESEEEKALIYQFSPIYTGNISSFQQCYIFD
# The other results are listed elsewhere or left out.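 Rule for the calls: active = dose-dependent thermal stabilisation significant by F-test of dose-response against flat model at 10% FDR; inactive = not significant.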
# Compound: Nc1nc2c(ncn2[C@@H]2O[C@H](COP(=O)(O)OP(=O)(O)OP(=O)(O)O)[C@@H](O)[C@H]2O)c(=O)[nH]1
# Test: dose-dependent thermal stabilisation call (2D-TPP, DLPTP, 10% FDR) (binary (1 = stabilised)); higher = stabilised by the compound
# Conditions: system: Jurkat gel-filtered lysate; concentration range 1-500 µM
row,Target,dose-dependent thermal stabilisation call
1,GRIPAP1 (UniProt Q4V328),inactive: 0
2,GRAP (UniProt Q13588),active: 1
3,GNB1 (UniProt P62873),inactive: 0
4,UniProt G9CGD6,inactive: 0
5,HGS (UniProt O14964),inactive: 0
6,HAUS8 (UniProt Q9BT25),inactive: 0
7,GPATCH8 (UniProt Q9UKJ3),inactive: 0
8,GMEB2 (UniProt Q9UKD1),inactive: 0
9,HMBOX1 (UniProt Q6NT76),inactive: 0
10,GTPBP3 (UniProt Q969Y2),active: 1
11,GCSH (UniProt P23434),inactive: 0
12,H2AFY (UniProt O75367),inactive: 0
13,GMPS (UniProt P49915),inactive: 0
14,HCFC1 (UniProt P51610),inactive: 0
15,HDGFL2 (UniProt Q7Z4V5),inactive: 0
16,HEMGN (UniProt Q9BXL5),inactive: 0
17,GTF2E1 (UniProt P29083),inactive: 0
18,HINT2 (UniProt Q9BX68),inactive: 0

# 2 entries picked at random from those above:
row,Target,dose-dependent thermal stabilisation call
17,GTF2E1 (UniProt P29083),inactive: 0
2,GRAP (UniProt Q13588),active: 1

# Following part:

row,Target,dose-dependent thermal stabilisation call
1,GAK (UniProt O14976),inactive: 0
2,GSK3A (UniProt P49840),inactive: 0
3,GPBP1 (UniProt Q86WP2),inactive: 0
4,GINS3 (UniProt Q9BRX5),inactive: 0
5,GCLM (UniProt P48507),inactive: 0
6,HMGB3 (UniProt O15347),inactive: 0
7,HIRIP3 (UniProt Q9BW71),inactive: 0
8,GALE (UniProt Q14376),active: 1
9,GLRX5 (UniProt Q86SX6),inactive: 0
10,HADH (UniProt Q16836),inactive: 0
11,GART (UniProt P22102),inactive: 0
12,HERC1 (UniProt Q15751),inactive: 0
13,HEBP2 (UniProt Q9Y5Z4),inactive: 0
14,GPATCH2 (UniProt Q9NW75),active: 1
15,GIT1 (UniProt Q9Y2X7),inactive: 0
16,GGH (UniProt Q92820),inactive: 0
17,GSTM2 (UniProt P28161),active: 1
